Test results taken from paper PMC12670160, “A drug-repurposing screen of FDA- and EMA-approved drugs identifies two NF-κB inhibitors active against eumycetoma” (Journal of Antimicrobial Chemotherapy, 2025).
Where a name gives a salt, the structure may show the parent alone. In all, about 5,300 compounds went through this assay and about 130 (2.5%) showed an effect of 50% or more. Some of the results follow.

System: M. mycetomatis strain mm55
Settings: primary screen, metabolic activity vs growth control; 96 h, 2 µM; inhibitor

| Compound | % viability [%] |
| --- | --- |
| CCCc1ccc(C(=O)O)cc1 [ONC0002961] | 146 |
| C#C[C@]1(OC(=O)CCCCCC)CC[C@H]2[C@@H]3CCC4=CC(=O)CC[C@@H]4[C@H]3CC[C@@]21C [ONC0000267, norethisterone enanthate] | 63.38 |
| CN(C)Cc1c(C(=O)NCCOc2ccc(C(=O)NO)cc2)oc2ccccc12 [ONC0004673, abexinostat pci24781] | 85.86 |
| CCN(CC)CCN1C(=O)C(=Cc2ccc(OC)cc2)Nc2ccccc21 [ONC0005609, caroverine] | 42.25 |
| CC(C)NCC(O)COc1ccc(COCCOC(C)C)cc1 (centres unmarked) [ONC0004061, bisoprolol fumarate] | 123.8 |
| COCCN1CCN(Cc2ccc(-c3n[nH]c4c3C(=O)c3c(NC(=O)NN5CCOCC5)cccc3-4)cc2)CC1 [ONC0000735, rgb286638 free base] | 66.76 |
| O=C1CN2Cc3c(ccc(Cl)c3Cl)N=C2N1 [ONC0004052, anagrelide hydrochloride] | 92.6 |
| CCCCCCCCCCCCCCOc1ccc(C(=O)O)o1 [ONC0001962, kd023] | 79.93 |
| Nc1nc(Cl)nc2c1ncn2[C@@H]1O[C@H](CO)[C@@H](O)[C@@H]1F [ONC0003106, clofarabine] | 80.77 |
| CC(C)C(=O)OCC(=O)[C@@]12O[C@H](C3CCCCC3)O[C@@H]1C[C@H]1[C@@H]3CCC4=CC(=O)C=C[C@]4(C)[C@H]3[C@@H](O)C[C@@]12C [ONC0005456, ciclesonide] | 95.02 |
| COc1ccc(-c2cc(=O)c3c(O)cc(O)cc3o2)cc1O [ONC0005003, diosmetin luteolin 4methyl ether] | 109.7 |
| CN1CC[C@H](c2c(O)cc(O)c3c(=O)cc(-c4ccccc4Cl)oc23)[C@H](O)C1 [ONC0002574, alvocidib] | 94.13 |
| Cc1cc(C)c(N(Cc2ccccc2)S(=O)(=O)c2ccc(OCCNC(=O)c3cc4ccccc4o3)cc2)c(C(=O)NO)c1 [ONC0001252, way170523] | 100.5 |
| Fc1ccc(C(OCCN2CCN(CCCc3ccccc3)CC2)c2ccc(F)cc2)cc1 [ONC0001594, vanoxerine] | 82.46 |
| CC(C)n1nc(C#Cc2ccccc2)c2c(N)ncnc21 [ONC0003074, spp86] | 114.9 |
| CC1(CN)Cc2ccccc2C1 [ONC0003802, org9768] | 50.43 |
| COC(=O)CC1CC(c2ccc(O)cc2)=NO1 (centres unmarked) [ONC0001839, iso1] | 78.97 |

2 compounds picked at random from those above:

| Compound | % viability [%] |
| --- | --- |
| COC(=O)CC1CC(c2ccc(O)cc2)=NO1 (centres unmarked) [ONC0001839, iso1] | 78.97 |
| Nc1nc(Cl)nc2c1ncn2[C@@H]1O[C@H](CO)[C@@H](O)[C@@H]1F [ONC0003106, clofarabine] | 80.77 |
